From paper PMC9859306
No constants are given. Whether binding was seen depends on the method and setting. In cells and extracts the contact can be indirect. Some entries that bind do so weakly or less than the wild type.

Sequences of proteins named here, by UniProt entry; tags and fusion partners are left off. A change or cut given only in a name is not applied to a line headed by its entry. A line that says so, or that is headed by a name, gives the form on record, which may keep a tag or linker.
UniProt Q9NRH3: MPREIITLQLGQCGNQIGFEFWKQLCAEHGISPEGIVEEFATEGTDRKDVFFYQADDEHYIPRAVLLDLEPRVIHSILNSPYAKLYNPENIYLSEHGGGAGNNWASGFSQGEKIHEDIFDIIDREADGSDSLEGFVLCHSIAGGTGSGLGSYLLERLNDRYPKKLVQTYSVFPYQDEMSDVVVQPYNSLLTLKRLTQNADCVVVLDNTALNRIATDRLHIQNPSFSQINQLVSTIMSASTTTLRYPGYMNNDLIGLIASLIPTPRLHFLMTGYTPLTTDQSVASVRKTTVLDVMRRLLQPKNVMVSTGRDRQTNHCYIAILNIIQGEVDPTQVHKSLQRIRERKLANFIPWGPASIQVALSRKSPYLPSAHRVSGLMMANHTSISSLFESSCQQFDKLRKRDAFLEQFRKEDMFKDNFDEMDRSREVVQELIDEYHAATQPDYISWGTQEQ
recombinant mutant TUBG2-FLAG p.(Met249Ile) (Q9NRH3, form named): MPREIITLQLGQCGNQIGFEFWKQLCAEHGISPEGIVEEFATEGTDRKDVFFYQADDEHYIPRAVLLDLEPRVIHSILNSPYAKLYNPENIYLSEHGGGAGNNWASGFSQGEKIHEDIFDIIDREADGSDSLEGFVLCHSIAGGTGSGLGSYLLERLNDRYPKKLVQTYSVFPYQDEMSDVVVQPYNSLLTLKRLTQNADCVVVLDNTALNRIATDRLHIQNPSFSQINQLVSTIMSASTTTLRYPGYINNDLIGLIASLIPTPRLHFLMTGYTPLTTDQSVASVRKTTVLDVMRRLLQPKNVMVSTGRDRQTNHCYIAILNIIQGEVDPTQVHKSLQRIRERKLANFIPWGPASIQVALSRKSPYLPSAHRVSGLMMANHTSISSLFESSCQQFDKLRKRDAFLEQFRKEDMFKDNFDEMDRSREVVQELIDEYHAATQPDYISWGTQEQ
UniProt Q9BSJ2: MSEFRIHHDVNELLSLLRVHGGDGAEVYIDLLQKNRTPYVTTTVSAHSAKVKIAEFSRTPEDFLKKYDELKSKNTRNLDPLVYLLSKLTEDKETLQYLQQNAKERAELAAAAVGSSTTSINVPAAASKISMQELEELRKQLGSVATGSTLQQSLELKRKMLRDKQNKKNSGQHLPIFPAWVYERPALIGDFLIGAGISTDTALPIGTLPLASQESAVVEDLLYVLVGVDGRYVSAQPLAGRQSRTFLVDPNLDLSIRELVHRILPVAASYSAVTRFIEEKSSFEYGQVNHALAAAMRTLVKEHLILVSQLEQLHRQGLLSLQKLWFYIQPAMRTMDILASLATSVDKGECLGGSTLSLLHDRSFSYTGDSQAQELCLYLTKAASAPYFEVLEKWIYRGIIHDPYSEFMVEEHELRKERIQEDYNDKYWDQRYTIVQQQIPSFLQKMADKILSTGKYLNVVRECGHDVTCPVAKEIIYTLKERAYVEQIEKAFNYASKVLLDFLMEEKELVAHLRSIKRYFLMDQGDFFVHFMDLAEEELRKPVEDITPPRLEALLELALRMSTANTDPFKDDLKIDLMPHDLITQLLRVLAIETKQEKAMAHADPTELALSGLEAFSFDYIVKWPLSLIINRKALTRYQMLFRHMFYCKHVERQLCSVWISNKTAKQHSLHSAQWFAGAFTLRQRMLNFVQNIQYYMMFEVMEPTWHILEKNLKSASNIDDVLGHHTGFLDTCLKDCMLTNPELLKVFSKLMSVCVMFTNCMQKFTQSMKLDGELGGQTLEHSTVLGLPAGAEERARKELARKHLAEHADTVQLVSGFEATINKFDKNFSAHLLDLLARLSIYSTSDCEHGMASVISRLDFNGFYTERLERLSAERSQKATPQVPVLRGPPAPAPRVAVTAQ

Experiments:
[1] = target: recombinant mutant TUBG2-FLAG p.(Met249Ile) (human) (UniProt Q9NRH3); assay: co-IP; mouse anti-FLAG antibody pre-bound to protein G Dynabeads, incubated overnight at 4 °C with clarified lysate of 293T cells transfected with WT, variant TUBG2-FLAG or empty vector; 50 mM HEPES-KOH pH 7.2, 1 mM MgCl2, 1 mM EGTA, 100 mM KCl, 0.5 mM GTP; washes with 0.1% Tween-20; blot for GCP2
[2] = target: recombinant wild type TUBG2-FLAG (human) (UniProt Q9NRH3); assay: as above

## GCP2 (from UniProt Q9BSJ2 1-902)
[1]
  binding: binds
[2]
  binding: binds
